# Values joined by “and” are separate entries in the source; they are usually repeats but may differ in a detail not shown here. Equal values may be shown once. About 4,000 (1%) of roughly 390,000 compounds were called active. Inconclusive results, whose numbers are uncertain, are shown with a selection of clear calls. Calls follow the shape of the dose curve; as a rule, active = well fitted inhibition curve with a large enough effect; inconclusive = small, poorly fitted or top-dose-only effect, or another doubt; inactive = no such curve, though single readings can be large or run the other way. Potencies beside an inconclusive call are fits to weak or partial responses and may not hold up.
# Sequences of proteins named here, by UniProt entry; tags and fusion partners are left off. A change or cut given only in a name is not applied to a line headed by its entry.
# UniProt Q9UNA4: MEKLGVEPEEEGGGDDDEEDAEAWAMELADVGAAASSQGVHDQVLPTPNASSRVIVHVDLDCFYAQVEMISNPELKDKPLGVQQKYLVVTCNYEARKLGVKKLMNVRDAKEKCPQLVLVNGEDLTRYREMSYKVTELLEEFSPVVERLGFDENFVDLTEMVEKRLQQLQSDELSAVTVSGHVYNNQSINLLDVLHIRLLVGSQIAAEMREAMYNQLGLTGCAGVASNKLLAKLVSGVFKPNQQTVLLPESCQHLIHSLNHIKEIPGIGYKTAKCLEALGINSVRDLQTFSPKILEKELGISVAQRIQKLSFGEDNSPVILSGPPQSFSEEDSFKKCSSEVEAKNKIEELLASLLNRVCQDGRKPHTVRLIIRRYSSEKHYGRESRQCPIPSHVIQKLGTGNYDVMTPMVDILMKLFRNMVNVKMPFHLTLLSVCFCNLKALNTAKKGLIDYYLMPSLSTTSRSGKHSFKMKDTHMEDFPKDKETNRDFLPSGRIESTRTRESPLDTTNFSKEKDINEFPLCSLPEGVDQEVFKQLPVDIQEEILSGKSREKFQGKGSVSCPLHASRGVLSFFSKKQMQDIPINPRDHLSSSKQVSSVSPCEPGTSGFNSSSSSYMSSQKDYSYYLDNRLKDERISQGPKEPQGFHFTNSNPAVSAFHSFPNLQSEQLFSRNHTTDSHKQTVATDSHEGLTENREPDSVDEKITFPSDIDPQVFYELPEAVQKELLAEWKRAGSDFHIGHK
# Target: DNA polymerase iota (Homo sapiens) (UniProt Q9UNA4)
# Assay: qHTS for Inhibitors of Polymerase Iota
# Settings: Pol iota fluorescent replication assay, 10 min; series mostly up to 115 µM
# Procedure, shortened: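 Pol iota at 10 nM preincubated 15 min with compounds at room temperature; reaction started with fluorescent substrate, 50 nM final. Fluorescence read kinetically at 0 and 10 min; buffer-only wells as negative control.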
# Potency is read from the fitted curve at half-maximal effect.
row,SMILES,Potency
1,CCOC(=O)C1CCCN(C(=O)c2cc(S(=O)(=O)N3CCCCC3)c[nH]2)C1 (stereo unspecified),"inconclusive: 39.8 µM [inhibitor, single point]"
2,COc1cc(N(C)C)c(OC)cc1C=C1C=CC=C1,inactive
3,CCCCN(C)CC(O)Cn1cc(/C=C/C(=O)c2ccc(OC)c(OC)c2)c2ccccc21 (stereo unspecified),inactive
4,COc1ccc(N2C(=O)CC(N3CCN(c4cccc(Cl)c4)CC3)C2=O)cc1 (stereo unspecified),"inconclusive: 25.1 µM [inhibitor, partial curve, poor fit]"
5,Cc1c(C(=O)OCC(C)C)[nH]c2c1C(=O)CC(c1ccco1)C2 (stereo unspecified),"inconclusive: 50.1 µM [inhibitor, partial curve, poor fit]"
6,O=C(O)Cn1c(SCc2cccc3ccccc23)nc2ccccc21,"inconclusive: 3.55 µM [inhibitor, full curve]"
7,O=C(NN=Cc1c(O)ccc2ccccc12)c1ccc2c(c1)OCO2,inactive
8,COc1ccc(-n2cc(CNCCCn3ccnc3)c(-c3cccc(F)c3)n2)cc1,inactive
9,O=C(Nc1c(C(=O)O)oc2ccc(Br)cc12)c1ccccc1,"inconclusive: 0.631 µM [inhibitor, partial curve, poor fit]"
10,CC1CCN(CCOc2ccc(Cl)c(Cl)c2)CC1,"inconclusive: 89.1 µM [inhibitor, single point]"
11,O=S(=O)(c1ccccc1)c1ncc(C(F)(F)F)cc1Cl,"inconclusive: 56.2 µM [inhibitor, partial curve, poor fit]"
12,CC1C(=O)Nc2ccc(S(=O)(=O)Nc3ccccc3Br)cc2NC1=O (stereo unspecified),"inconclusive: 89.1 µM [inhibitor, single point] and inconclusive: 28.2 µM [inhibitor, single point]"
13,O=c1c(Cl)c(NCc2ccccc2)cnn1C12CC3CC(CC(C3)C1)C2,inactive
14,Cn1c(C(=O)NCc2ccccn2)cc2c(=O)n3ccccc3nc21,"inconclusive: 70.8 µM [inhibitor, single point]"
15,O=C(O)c1cc(-c2ccc(/C=N/N3C(=O)C4C5C=CC(CC5)C4C3=O)o2)ccc1Cl (stereo unspecified),inactive
16,CN(C)c1ccc(C(=O)OCC#CCSc2nnc(-c3cccc4ccccc34)o2)cc1,"inconclusive: 70.8 µM [inhibitor, single point]"
17,COC(=O)c1ccc(COc2cccc3c2CCN(Cc2ccccc2)C3=O)o1,inactive
18,COc1cc(NCCCNC(C)C)c2nccc(C)c2c1,"inconclusive: 12.6 µM [inhibitor, partial curve]"
19,Nc1[nH]n2c(=O)cc(-c3ccccc3)nc2c1N=Nc1ccc(S(N)(=O)=O)cc1,inactive
20,O=c1cc(N2CCc3ccccc3C2)[nH]c(=O)n1Cc1ccc(F)cc1,"inconclusive: 79.4 µM [inhibitor, single point]"
21,N#C/C(=C\c1ccc(O)c(O)c1)C(=O)c1ccc(O)c(O)c1,active: 112 nM and active: 1.12 µM
22,O=C(NCc1ccccc1)N1CCN(c2ccc(F)cc2)CC1,"inconclusive: 31.6 µM [inhibitor, single point]"

# Entries shown so far containing four or more nitrogen atoms, in the order listed:
row,SMILES,Potency
8,COc1ccc(-n2cc(CNCCCn3ccnc3)c(-c3cccc(F)c3)n2)cc1,inactive
14,Cn1c(C(=O)NCc2ccccn2)cc2c(=O)n3ccccc3nc21,"inconclusive: 70.8 µM [inhibitor, single point]"
19,Nc1[nH]n2c(=O)cc(-c3ccccc3)nc2c1N=Nc1ccc(S(N)(=O)=O)cc1,inactive

# The list goes on.

row,SMILES,Potency
1,Cc1ccc2nc(Cl)c3cc(C(=O)NCCCN4CCC(C)CC4)sc3c2c1,inactive
2,COc1ccc(-n2c(=O)c3ccc(C(=O)NCc4ccc(C)cc4)cc3n(CC(=O)Nc3cccc(F)c3)c2=O)cc1,inactive
3,Oc1ccc(C=Nc2ccccc2-c2nc3ccccc3[nH]2)c(O)c1,"inconclusive: 89.1 µM [inhibitor, partial curve]"
4,CCCCC(=O)Nc1cccc(NC(=O)c2ccc(Br)cc2)c1,"inconclusive: 39.8 µM [inhibitor, single point]"
5,COCCCNC(=O)Cn1c(=O)n(-c2ccccc2)c(=O)c2c1c1cc(OC)ccc1n2C,inactive
6,CCCCn1c(=O)[nH]c(=O)c2c1nc(-c1ccccc1F)n2Cc1ccccc1OC,"inconclusive: 7.08 µM [inhibitor, partial curve, poor fit]"
7,CCOC(=O)c1nc2nc(C)c(Cl)c(=O)n2[nH]1,"inconclusive: 39.8 µM [inhibitor, single point]"
8,CN(C)c1ccc(/C=C/c2ccnc3c(Cl)cccc23)cc1,inactive
9,CCOc1ccc(C2c3[nH]c4ccccc4c3CCN2C(=O)CSc2ccccc2)cc1 (stereo unspecified),"inconclusive: 89.1 µM [inhibitor, single point]"
10,CCOC(=O)C1CCN(C(=O)c2cccnc2Oc2ccccc2)CC1,"inconclusive: 89.1 µM [inhibitor, single point]"
11,C=CCn1cc(/C=N/NC(=O)COc2cccc3cccnc23)c2ccccc21,"inconclusive: 112 µM [inhibitor, partial curve, poor fit]"
12,Cc1cccc(NC(=O)C2CCCN2S(=O)(=O)c2ccc(Cl)cc2)n1 (stereo unspecified),inactive
13,Cc1ccc(C)c(S(=O)(=O)N2CCCN(C)CC2)c1,"inconclusive: 39.8 µM [inhibitor, single point]"
14,O=C(O)c1nnn(-c2ccc([N+](=O)[O-])cc2)c1-c1ccccc1,"inconclusive: 28.2 µM [inhibitor, partial curve, poor fit]"
15,CC1CCc2c(sc(NC(=O)/C=C/c3cccs3)c2C(=O)O)C1 (stereo unspecified),"inconclusive: 50.1 µM [inhibitor, partial curve, poor fit]"
16,Cn1nc([N+](=O)[O-])nc1S(C)(=O)=O,"inconclusive: 31.6 µM [inhibitor, partial curve, poor fit]"
17,Cc1cc(O)ccc1Nc1nc(-c2sc(N)nc2C)cs1,"inconclusive: 25.1 µM [inhibitor, partial curve, poor fit]"
18,CC(=O)Nc1nc(C)c(CCCOc2ccc([N+](=O)[O-])cc2)c(=O)[nH]1,"inconclusive: 89.1 µM [inhibitor, partial curve, poor fit]"
19,O=C(O)c1cc([N+](=O)[O-])ccc1NCc1ccccn1,"inconclusive: 10 µM [inhibitor, partial curve, poor fit]"
20,CCc1ccc(CNC(=O)CN2C(=O)CSc3ccc(S(=O)(=O)N4CCOCC4)cc32)cc1,inactive
21,Cn1c(NCc2ccco2)nc2c1c(=O)n(Cc1ccc(Cl)cc1)c(=O)n2C,"inconclusive: 20 µM [inhibitor, full curve, poor fit]"
22,O=C(NCCN1CCOCC1)/C(=C/c1ccc(Cl)cc1)NC(=O)c1ccccc1,inactive

row,SMILES,Potency
1,O=C(O)CC/C(=C/c1cccc(NC(=O)c2ccccc2Cl)c1)c1nc2ccccc2s1,"inconclusive: 39.8 µM [inhibitor, single point]"
2,Cc1ccc(Oc2ccc(OCC(=O)NC3CCS(=O)(=O)C3)cc2)cc1 (stereo unspecified),inactive
3,O=[N+]([O-])c1ccc(N/N=C/c2ccc(OCc3cccc4ccccc34)cc2)nc1,"inconclusive: 6.31 µM [inhibitor, partial curve, poor fit]"
4,Cc1ccc(CCN2CC(C(=O)NCc3ccco3)CC2=O)cc1 (stereo unspecified),"inconclusive: 10 µM [inhibitor, full curve, poor fit]"
5,CNC(=O)COC(=O)C1CCN(S(=O)(=O)c2ccc3c(c2)OCCO3)CC1,"inconclusive: 63.1 µM [inhibitor, single point]"
6,N#CCC(=O)N/N=C/c1coc2ccccc2c1=O,"inconclusive: 15.8 µM [inhibitor, partial curve, poor fit]"
7,CC(=O)c1cccc(NC(=O)COc2ccc3oc(=O)cc(C)c3c2)c1,"inconclusive: 2.51 µM [inhibitor, full curve, poor fit]"
8,COC(=O)c1cccc(Nc2c(-c3ccc(SC)cc3)nc3nc[nH]n23)c1,inactive
9,CCc1ccc(C2N=C(N)Nc3nc4ccccc4n32)cc1 (stereo unspecified),"inconclusive: 89.1 µM [inhibitor, single point]"
10,Cc1cccc(N2CCN(c3ncnc4onc(C)c34)CC2)c1C,"inconclusive: 89.1 µM [inhibitor, single point]"
11,CCc1nnc(NC(=O)c2ccc(S(=O)(=O)N(CCOC)CCOC)cc2)o1,"inconclusive: 20 µM [inhibitor, partial curve, poor fit]"
12,Cc1cccc(S(=O)(=O)c2cn(Cc3ccc(F)cc3)c3cc(N4CCCCC4)c(F)cc3c2=O)c1,inactive
13,CCNC(=O)c1ccccc1SCC(=O)Nc1ccc(F)cc1,inactive
14,O=C(CCCCCn1c(=O)[nH]c2ccccc2c1=O)NCCc1ccccc1,inactive
15,CCCNC(=O)Nc1cc(S(=O)(=O)CC)ccc1O,"inconclusive: 50.1 µM [inhibitor, partial curve, poor fit]"
16,COc1cc(/C=C2\C(=O)N(c3ccc(NC(C)=O)cc3)N=C2c2ccccc2)ccc1O,"inconclusive: 22.4 µM [inhibitor, partial curve, poor fit]"
17,C(CNC1C2CC3CC(C2)CC1C3)CN1CCOCC1 (stereo unspecified),"inconclusive: 39.8 µM [inhibitor, single point]"
18,COc1ccccc1-n1cnnc1SCC(=O)Nc1ncc(Cl)cc1Cl,"inconclusive: 39.8 µM [inhibitor, single point]"
19,CCOC(=O)N1CCC(NC(=O)c2cnn(-c3ccc(C)cc3)c2-n2cccc2)CC1,inactive
20,COc1ccc(-c2nc3ccccc3n2Cc2ccc(C(C)C)cc2)cc1,"inconclusive: 4.47 µM [inhibitor, partial curve, poor fit]"
21,CCOC(=O)NC1(NCc2ccccc2)Oc2ccccc2O1,"inconclusive: 50.1 µM [inhibitor, partial curve, poor fit]"
22,Cc1cc(Cl)c(Cl)cc1S(=O)(=O)NCCCn1ccnc1,"inconclusive: 39.8 µM [inhibitor, partial curve, poor fit]"

# From PubChem BioAssay AID588590 (National Center for Advancing Translational Sciences (NCATS), 2011)
